Molecules are shown by their SMILES.

The test system of the series is KK-Ay mice. Description: KK-Ay mice kidney inflammation: body weight, kidney ratio, blood glucose, HbA1c, renal glomerulus consolidation (Experiment 14). The format is in vivo. The note with it: 10 weeks; for Weight ratio of kidney: (Weight of kidney)/(Body weight). From the text: Fifty KK-Ay mice, 5-week-old, male, commercialized by Japan Crea Co., Tokyo, Japan, were preliminary bred for one week on CE-2 feed commercialized by Japan Crea Co., Tokyo, Japan, measured for body weight and blood glucose level in blood samples collected from their tail veins, and randomly grouped into five groups, ten heads each, after balancing each measured value. One of the five groups was made into a control group and the mice of the group were allowed to take water freely and bred for 10 weeks (Experiment group 1). […] Throughout the periods of preliminary breeding and testing, the mice were bred while freely allowing them to take CE-2 feed at 22±2° C. under a light-dark cycle of 12 hours (lighting: from 7:00 to 19:00). At the termination of the test, the mice were evaluated based on their body weight, weight ratio of kidney, blood glucose level, hemoglobin A1c (HbA1c), and pathological findings of renal disorder by autopsy, and the percentage of mice with at least 50% consolidation (++) of renal glomerulus against the total glomus is shown in Table 15. The weight ratio of kidney was determined by dividing the weight of kidney by the body weight. The blood glucose level, HbA1c, and denatured score of renal glomerulus were determined by the following method.
At the termination of the test, the mice were fasted for 16 hours prior to autopsy and collected blood from their postcava for measurement of fasting glucose level. The blood glucose level was determined by “GLUCOSE CII-TEST WAKO”, a product name of a commercialized reagent for blood glucose level commercialized by Wako Pure Chemical Industries Ltd., Tokyo, Japan.
At the termination of the test, the mice were fasted for 16 hours before autopsy and collected blood from their postcava for measurement of interdigestive HbA1c level. The measurement was asked FALCO biosystems Ltd., Kyoto, Japan, a privately-owned clinical inspection institute.
At the autopsy, each mouse was collected his kidney which was then fixed with neutral buffered formalin, prepared into a pathologic tissue section in usual manner, and stained with hematoxylin-eosin staining (H-E staining) and PAS staining. For the stained pathologic tissue section of each mouse, they were compared with that of the control and the pathological findings by microscopic observation were judged based on the following criteria and scored for an index of the denaturation of renal disorder.
The degree of renal disorder was judged based on the degree of consolidation of renal glomerulus: The degree was judged based on the four grades; (++), meaning that at least 50% consolidation of renal glomerulus is observed against the total glomus; (+), meaning that at least 25% but below 50% consolidation of renal glomerulus is observed against the total glomus; (±), meaning that less than 25% consolidation of renal glomerulus is observed against the total glomus; and (−), meaning that no consolidation of renal glomerulus is observed against the total glomus. The pathological findings of kidney was judged based on an evaluation criterion for pathologic tissue (see, for example, the lines 12 to 21 at page 862 of “American Journal of Pathology”, Vol. 160, No. 3, pp. 861-867, 2002, by Andrea Hartner et al.).

The mark [1] stands for this setting: 30 mg/kg body weight/day in drinking water.

`Nc1c2ncn([C@@H]3O[C@H](CO)[C@@H](O)[C@H]3O)c2nc[n+]1[O-]` [ANO, adenosine N1-oxide]: the Body weight under setting [1] turned out to be 43.8 g and the Body weight (100 mg/kg body weight/day in drinking water) is recorded as 42.8 g. The “Weight ratio of kidney” value was found to be 0.013 under setting [1] and 0.013 (100 mg/kg body weight/day).

As for `Nc1ncnc2c1ncn2[C@@H]1O[C@H](CO)[C@@H](O)[C@H]1O` [AN, adenosine], the Body weight (94 mg/kg body weight/day) is 43.5 g.

As for `OC[C@H]1O[C@@H](n2cnc3c(O)ncnc32)[C@H](O)[C@@H]1O` [IN, inosine], where the note is “94 mg/kg body weight/day”, the Body weight is listed as 43.2 g and the “Weight ratio of kidney” value is 0.013.
